Experimental data: patent US12022832B2, “Compounds and methods for treating nematode infections” (The Governing Council of The University of Toronto, priority 2018, dated 2024)
The name of at least one read-out is uncertain.

Test system: C. elegans
Assay: C. elegans acute motor (rubber-band, convulsion/paralysis) phenotype on solid substrate
Assay type: in vivo, Caenorhabditis elegans
Conditions: 80 minutes of incubation
Text: Worms are scored for the indicated phenotype (see legend); convulsions along the circumferential axis is characterized as the ‘shaker’ phenotype in C. elegans; convulsions along the anterior-posterior axis is characterized as the ‘rubber-band’ phenotype in C. elegans. 18 young-adult animals were scored at each time-point for rubber-band (animals spontaneously contract or do so upon touch on the nose with a platinum wire), hyperactive movement (observing rapid lateral nose movement) and shaker (spontaneous circumferential rotations). […] Data are showing the mean number of animals with each phenotype.
If a penetrant phenotype is observed, a dose-response analysis is performed; the EC50 is shown.
Each compound was added to the MYOB substrate before pouring to achieve desired concentration after diffusion through the media. The final concentration of dimethyl sulfoxide (DMSO) in each of the wells was […]. Young adult or fourth-staged larval worms are transferred into each well using a platinum wire pick.
˜25 young adult animals of each indicated strain were picked using a platinum wire onto 2% MYOB agar containing the indicated drug condition with 1% DMSO. […] 18 animals were scored per trial; data are the mean response of 2-3 replicates showing the standard error of the mean.

SMILES: CCCc1ccc(-c2ccc(OC(F)F)cn2)cc1 [IIIbb (wact-55-12-8), 5-(difluoromethoxy)-2-(4-propylphenyl)pyridine]
- C. elegans acute motor phene: lowest concentration at which 50% of the young adult animals exhibit convulsion/paralysis phenotypes: 15 µM
